Laboratory results as given in patent publication EP3117830A1, “ANTIBACTERIAL PEPTIDES, AND USES THEREOF” (Nuritas Limited, priority 2015, dated 2017).
Part of at least one peptide drawing is inferred or uncertain, most often the ends. No end group written: not given here.

Tests used:
E. coli ATCC 25922 = type: cell-based; conditions: against E. coli; not at the levels of susceptibility
Description: Antibacterial activity testing (in solid media).

A. baumannii ATCC 19606 = assay: Antibacterial activity testing in solid media (disc on Mueller-Hinton agar plates); type: cell-based, Acinetobacter baumannii
MRSA ATCC 43300 = type: cell-based, Methicillin-Resistant Staphylococcus aureus

Sequence: LNSQKFPILNLVQLSATR [I_87_SF]
- inhibitory activity (final result) (E. coli ATCC 25922): some inhibitory activity
- activity (final result) (A. baumannii ATCC 19606; against A. baumannii): No activity
- antibacterial activity (A. baumannii ATCC 19606; figure legend Figs 2A and 2B, agar plates, Acinetobacter baumannii 19606): No antibacterial activity was detected
- inhibitory activity (final result) (MRSA ATCC 43300; against MRSA, not at the levels of susceptibility): some inhibitory activity
- inhibition zone (MRSA ATCC 43300; figure legend Figs 3A and 3B, agar plates, MRSA 4330): 18 mm
